PubChem BioAssay AID504784 – Drosophila RNAi Screening Center | 2011

Screen: 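Genome-wide knock-down for genes giving too much or too little stored lipid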 (primary screen)
System: Drosophila Kc167 embryonic cells
Reagents: long dsRNA against Drosophila genes, about 250 ng dsRNA per well
Duration: 4 days
Treatment: cells fed 400 µM oleic acid bound to BSA
Read-out: 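Cells imaged and segmented; ratio of lipid droplet area to nuclear area, log-transformed, then normalised as a B-score over the screen; higher means more stored lipid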
Scale: droplet/nuclear area B-score: higher = more stored lipid (overstorage)
The screen tested about 17,000 reagents; below is a random part of those with a known target gene and a result. 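Each column is one replicate's B-score; the combined score over replicates was not deposited, so single values may mislead.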 The numbers tell different reagents against one gene apart. Names joined by + are all predicted targets of the reagent. Not all columns of the deposit are shown.

Or74a
- droplet/nuclear area B-score, replicate 1: 0.0552

Pfdn4
- droplet/nuclear area B-score, replicate 1: 0.635

CG14212
- droplet/nuclear area B-score, replicate 1: 0.0329

Pgant5
- droplet/nuclear area B-score, replicate 1: 1.95

eIF2Bdelta
- droplet/nuclear area B-score, replicate 1: 0.648

CIA30
- droplet/nuclear area B-score, replicate 1: -2.17

Tsp66A + CG42661 + CG42660
- droplet/nuclear area B-score, replicate 1: -0.243

CG15082
- droplet/nuclear area B-score, replicate 1: -0.0481

SC35 #1
- droplet/nuclear area B-score, replicate 1: 1.89

SC35 #2
- droplet/nuclear area B-score, replicate 1: 1.31

2 consecutive reagents from above, for reference:
CG15082
- droplet/nuclear area B-score, replicate 1: -0.0481

SC35 #1
- droplet/nuclear area B-score, replicate 1: 1.89

The results go on:
mRpS11
- droplet/nuclear area B-score, replicate 1: 1.46

Hsc70-5
- droplet/nuclear area B-score, replicate 1: 0.0945

ReepA #1
- droplet/nuclear area B-score, replicate 1: 1.24

ReepA #2
- droplet/nuclear area B-score, replicate 1: -1.21

Ptp4E
- droplet/nuclear area B-score, replicate 1: 3.04

EMRE
- droplet/nuclear area B-score, replicate 1: -2.07
